# Data from PubChem BioAssay AID1347075 (National Center for Advancing Translational Sciences (NCATS), 2019).
# Screen size: about 400,000 compounds; about 5,500 (1.4%) were called active. The shares of active, inactive and inconclusive entries below differ from those in the screen. Calls follow the shape of the dose curve; as a rule, active = well fitted cell-killing curve with a large enough effect; inconclusive = small, poorly fitted or top-dose-only effect, or effect the other way; inactive = flat fitted curve, though single readings scatter. A potency beside an inconclusive call is a rough fit, not a confirmed value.
# Assay: qHTS assay for MDR1-selective chemotherapeutics: Primary screen using the parental adenocarcinoma cell KB-3-1; also: nearly all actives have a fitted effect of over 60% in size
# Details: KB-3-1 viability, CellTiter-Glo ATP luminescence, 72 h; activity change, negative = cytotoxic: at 46.1 µM (top of the series)
# Summary of the method: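 Using CellTiter-Glo luminescence, growth of non-resistant KB-3-1 adenocarcinoma cells is assessed 72 h after pin-tool compound addition at 37 °C. Normalized responses across the concentration series yield fitted curves.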
# % is scaled to controls: 0 for no effect and ±100 for the full control effect; potency is read from the fitted curve at half-maximal effect.
SMILES,"activity change, negative = cytotoxic",Potency
O=S1OC(c2ccccc2)c2cc(Cl)ccc21 (stereo not given),inactive: 0%,
COc1ccccc1N1CCN(C(=O)c2ccc([N+](=O)[O-])s2)CC1,,"inconclusive: 16.4 µM [rising, single point]"
CCCCn1cc(S(=O)(=O)c2ccccc2)c(=O)c2cc(F)c(N3CCC(C)CC3)cc21,inactive: 0.244%,
COc1cc(OC)cc(C(=O)NCC2CCCN(Cc3ccc(SC)cc3)C2)c1 (stereo not given),inactive: 4.45%,
COc1ccc2sc3cccc(NCCN(C)C)c3c(=O)c2c1,,"inconclusive: 25.9 µM [cytotoxic, single point]"
Cc1ccccc1OCCNc1ccc(C(F)(F)F)cc1[N+](=O)[O-],,active: 16.4 µM
CCOC(=O)C1=C(C(F)(F)F)Nc2ncnn2C1c1cccc(OC)c1OC (stereo not given),,"inconclusive: 25.9 µM [rising, single point]"
CS(=O)(=O)N(CC(=O)N1CCN(c2ccccc2F)CC1)c1ccc2c(c1)OCCO2,inactive: -4.73%,
O=C1c2cccc3c([N+](=O)[O-])ccc(c23)C(=O)N1c1nccs1,,"inconclusive: 14.6 µM [cytotoxic, partial curve, poor fit]"
COc1cccc(C(=O)NCC(c2ccc3c(c2)OCO3)N2CCN(c3ccc(F)cc3)CC2)c1 (stereo not given),inactive: -7.11%,
Fc1ccccc1C1c2cccn2CCN1C(=S)Nc1ccc(Br)cc1 (stereo not given),,"inconclusive: 14.6 µM [cytotoxic, partial curve, poor fit]"
CC(=O)n1cc([C@H]2C=C(C(=O)N3CCN(Cc4ccccc4)CC3)O[C@@H](OCc3ccc(CO)cc3)C2)c2ccccc21,,"inconclusive: 29.1 µM [cytotoxic, single point]"
O=C(CS(=O)(=O)c1cn(CC(=O)N2CCOCC2)c2ccccc12)NCc1ccc(F)cc1,,"inconclusive: 29.1 µM [rising, single point]"
Cc1ccc(-c2nc(CN3CCN(C(=O)C4CCCO4)CC3)cs2)cc1 (stereo not given),,"inconclusive: 18.4 µM [cytotoxic, partial curve, poor fit]"
Cc1c(C(=O)NCc2ccc3c(c2)OCO3)sc2nc(-c3ccc(F)cc3)cn12,inactive: 12%,
O=C(NCc1ccco1)C1CCCCC1,inactive: -17.9%,
COc1ccc(C2=Nn3c(nnc3-c3ccccc3OC)SC2)cc1OC1CCOC1 (stereo not given),,active: 0.651 µM
C/C(=N/OC(=O)c1c(-c2c(Cl)cccc2Cl)noc1C)c1cnccn1,,"inconclusive: 20.6 µM [rising, single point]"
CC(C)(C)c1ccc(C(=O)NCC(=O)NCc2ccccn2)cc1,inactive: -0.713%,
COc1cc(C(=O)Nc2ccc(OCc3cc(=O)n4cccc(C)c4n3)cc2)cc(OC)c1OC,inactive: -0.157%,
O=C(Nc1cccc(S(=O)(=O)N2CCCCCC2)c1)c1ccc2ccccc2n1,,"inconclusive: 29.1 µM [cytotoxic, single point]"
Cc1ccc(C(=O)Oc2oc(-c3ccco3)nc2C=Nc2ccc(Cl)cc2)cc1,,"inconclusive: 29.1 µM [cytotoxic, single point]"
CC(C)c1ccc(NC(=O)CSc2n[nH]c(=O)n2-c2cccnc2)cc1,inactive: 18%,
COc1ccccc1CNC(=O)Nc1nc(C(N)CCc2ccccc2)cs1 (stereo not given),,"inconclusive: 29.1 µM [cytotoxic, single point]"

# Part of the list above, tab-delimited.
SMILES	activity change, negative = cytotoxic	Potency
COc1ccccc1N1CCN(C(=O)c2ccc([N+](=O)[O-])s2)CC1		inconclusive: 16.4 µM [rising, single point]
CCCCn1cc(S(=O)(=O)c2ccccc2)c(=O)c2cc(F)c(N3CCC(C)CC3)cc21	inactive: 0.244%	
COc1cc(OC)cc(C(=O)NCC2CCCN(Cc3ccc(SC)cc3)C2)c1 (stereo not given)	inactive: 4.45%	
COc1ccc2sc3cccc(NCCN(C)C)c3c(=O)c2c1		inconclusive: 25.9 µM [cytotoxic, single point]
Cc1ccccc1OCCNc1ccc(C(F)(F)F)cc1[N+](=O)[O-]		active: 16.4 µM
CCOC(=O)C1=C(C(F)(F)F)Nc2ncnn2C1c1cccc(OC)c1OC (stereo not given)		inconclusive: 25.9 µM [rising, single point]
CS(=O)(=O)N(CC(=O)N1CCN(c2ccccc2F)CC1)c1ccc2c(c1)OCCO2	inactive: -4.73%	
O=C1c2cccc3c([N+](=O)[O-])ccc(c23)C(=O)N1c1nccs1		inconclusive: 14.6 µM [cytotoxic, partial curve, poor fit]
COc1cccc(C(=O)NCC(c2ccc3c(c2)OCO3)N2CCN(c3ccc(F)cc3)CC2)c1 (stereo not given)	inactive: -7.11%	
Fc1ccccc1C1c2cccn2CCN1C(=S)Nc1ccc(Br)cc1 (stereo not given)		inconclusive: 14.6 µM [cytotoxic, partial curve, poor fit]
CC(=O)n1cc([C@H]2C=C(C(=O)N3CCN(Cc4ccccc4)CC3)O[C@@H](OCc3ccc(CO)cc3)C2)c2ccccc21		inconclusive: 29.1 µM [cytotoxic, single point]
O=C(CS(=O)(=O)c1cn(CC(=O)N2CCOCC2)c2ccccc12)NCc1ccc(F)cc1		inconclusive: 29.1 µM [rising, single point]
Cc1ccc(-c2nc(CN3CCN(C(=O)C4CCCO4)CC3)cs2)cc1 (stereo not given)		inconclusive: 18.4 µM [cytotoxic, partial curve, poor fit]
Cc1c(C(=O)NCc2ccc3c(c2)OCO3)sc2nc(-c3ccc(F)cc3)cn12	inactive: 12%	
O=C(NCc1ccco1)C1CCCCC1	inactive: -17.9%	
COc1ccc(C2=Nn3c(nnc3-c3ccccc3OC)SC2)cc1OC1CCOC1 (stereo not given)		active: 0.651 µM
C/C(=N/OC(=O)c1c(-c2c(Cl)cccc2Cl)noc1C)c1cnccn1		inconclusive: 20.6 µM [rising, single point]
CC(C)(C)c1ccc(C(=O)NCC(=O)NCc2ccccn2)cc1	inactive: -0.713%	
COc1cc(C(=O)Nc2ccc(OCc3cc(=O)n4cccc(C)c4n3)cc2)cc(OC)c1OC	inactive: -0.157%	
O=C(Nc1cccc(S(=O)(=O)N2CCCCCC2)c1)c1ccc2ccccc2n1		inconclusive: 29.1 µM [cytotoxic, single point]
Cc1ccc(C(=O)Oc2oc(-c3ccco3)nc2C=Nc2ccc(Cl)cc2)cc1		inconclusive: 29.1 µM [cytotoxic, single point]

# Carrying on.

SMILES,"activity change, negative = cytotoxic",Potency
COc1ccc(C(=O)Nc2nnc(S(=O)(=O)Cc3ccccc3)s2)cc1,inconclusive: -70%,
CCN(CC)C(=O)c1sc2c(c1C)c(=O)n(CCc1ccccc1)c(=O)n2Cc1cccc(Cl)c1,,"inconclusive: 25.9 µM [cytotoxic, partial curve, poor fit]"
COc1ccc(C2=NN(C(=O)CSc3ncccn3)C(c3ccc(OC)cc3)C2)cc1 (stereo not given),inactive: 15.1%,
COc1ccccc1CNc1ccc(-c2nc(-c3cccc(C)c3)no2)cc1[N+](=O)[O-],inactive: -0.488%,
COc1ccccc1NC(=O)c1ccc(NC(=O)CSc2nnnn2C)cc1,,"inconclusive: 14.6 µM [cytotoxic, partial curve]"
COc1ccc(Cl)cc1NC(=O)C(C)N1CCN(c2ccccn2)CC1 (stereo not given),inactive: -17.6%,
Cc1ccc(S(=O)(=O)N2C[C@H]3C(=O)C[C@@H](c4ccccc4F)N(S(=O)(=O)c4ccc(C)cc4)[C@H]3C[C@H]2c2ccccc2F)cc1,inactive: 0.584%,
S=c1[nH]c2ccccc2o1,inactive: -6.23%,
O=C(c1cnc(N2CCOCC2)c2ccccc12)N1CCN(c2ccccc2F)CC1,inactive: -9.64%,
COCCNS(=O)(=O)c1ccc(-c2ccc(C)cc2)cc1,,"inconclusive: 20.6 µM [cytotoxic, single point]"
CC[N+](C)(C)c1ccc(/C=C/c2ccncc2)cc1,,active: 2.31 µM
Cc1c(C(=O)C(=O)N2c3ccccc3CC2C)c2ccccc2n1C (stereo not given),,active: 23.1 µM
O=[N+]([O-])c1ccc(Oc2cccc(F)c2)c2ccncc12,,"inconclusive: 25.9 µM [cytotoxic, single point]"
CCN(CC)C(=O)c1sc(NC(=O)c2ccncc2)c(C(=O)OC)c1C,,"inconclusive: 16.4 µM [rising, partial curve, poor fit]"
CCCCCn1c(Sc2ccccc2)nc2c1c(=O)[nH]c(=O)n2C,,"inconclusive: 2.06 µM [cytotoxic, full curve]"
CCOc1cccc(/C=C/c2ccc3cccc(O)c3n2)c1OC,,"inconclusive: 29.1 µM [cytotoxic, single point]"
Cc1cc(NC(=O)c2sccc2C)n(-c2nc3ccccc3[nH]2)n1,,"inconclusive: 29.1 µM [cytotoxic, single point]"
Cc1ccc(NC(=O)c2ccc3c(c2)CCN3S(C)(=O)=O)c(C)c1,inactive: 1.12%,
CCn1cc(C(=O)N2CCN(c3ccccc3OC)CC2)c(=O)c2cc(S(=O)(=O)N3CCC(C)CC3)ccc21,,"inconclusive: 29.1 µM [rising, single point]"
Cc1ccc(CNC(=O)Cc2ccc(Br)cc2)cc1,,"inconclusive: 29.1 µM [cytotoxic, single point]"
O=C(NNC(=O)c1ccccc1O)c1ccc(-c2ccc([N+](=O)[O-])cc2)o1,,"inconclusive: 29.1 µM [cytotoxic, single point]"
CC(C)Oc1ccc(CNC(=O)c2ccccc2NC(=O)c2nsc3ccccc23)cc1,inactive: -3.69%,
O=C(Nc1cc(S(=O)(=O)N2CCOCC2)ccc1N1CCCC1)c1ccc2c(c1)S(=O)(=O)c1ccccc1C2=O,inactive: 3.88%,
CC1(C(=O)NCC2CC2)Cc2c(-c3cccc(C(F)(F)F)c3)ccnc2O1 (stereo not given),,"inconclusive: 20.6 µM [cytotoxic, single point]"

SMILES,"activity change, negative = cytotoxic",Potency
CCOC(=O)C1=C(CN2CCSCC2)NC(=O)NC1c1ccc2c(c1)OCO2 (stereo not given),inactive: 4.99%,
O=S(=O)(c1ccccc1)c1nnn2c1nc(NC1CCN(Cc3ccccc3)CC1)c1ccccc12,,"inconclusive: 18.4 µM [cytotoxic, single point]"
Cc1ccccc1C=Nc1ccccc1C(N)=O,,active: 3.66 µM
COc1cccc(C2CC(c3ccccc3OC)n3ncnc3N2)c1 (stereo not given),,"inconclusive: 29.1 µM [cytotoxic, single point]"
N=c1c2c(-c3ccccc3)c(-c3ccccc3)oc2ncn1CCN1CCOCC1,,"inconclusive: 18.4 µM [cytotoxic, single point]"
COCCNC(=O)NC(=O)COC(=O)c1ccc2[nH]c3c(c2c1)CCCC3,,"inconclusive: 6.51 µM [rising, partial curve]"
N#Cc1c(NC(=O)CSc2ncc(-c3ccccc3)n2CC2CCCO2)sc2c1CCCC2 (stereo not given),,"inconclusive: 8.2 µM [cytotoxic, partial curve]"
CC1CCN(S(=O)(=O)c2ccc(S(=O)(=O)NCc3ccccc3)cc2)CC1,,"inconclusive: 29.1 µM [cytotoxic, single point]"
CCN(CC)C(=O)C1=C(C)N(CCCOC)C(=O)C(CC(=O)NCCc2ccccn2)C1 (stereo not given),inactive: -4.14%,
NC(=O)c1ccc2c(=O)n3c(-c4cc(Cl)c(N)c(Cl)c4)csc3nc2c1,,active: 23.1 µM
O=S1(=O)CCOC[C@H](CC2CCCCC2)N1Cc1cccc(Cl)c1,,"inconclusive: 29.1 µM [cytotoxic, single point]"
O=P(c1ccccc1)(c1ccccc1)N(c1ccccc1)c1ccccc1,inactive: -7.13%,
CNC(=S)Nc1ccc(-c2nc3ccc(C)cc3s2)cc1,inactive: -2.07%,
C[N+]1(CC(=O)OC2CCCCCCCCCCC2)CCCC1,,"inconclusive: 29.1 µM [cytotoxic, single point]"
C=CCC1(CC=C)CCCN1C(=O)c1cc(COc2ccc(C)nc2)on1,,"inconclusive: 1.3 µM [cytotoxic, full curve]"
COc1ccc(OC)c2sc(NC(=O)CCS(=O)(=O)c3ccccc3)nc12,,"inconclusive: 29.1 µM [cytotoxic, single point]"
O=C(Cn1c(=O)oc2cc(S(=O)(=O)NCc3ccccc3)ccc21)N(CCO)Cc1ccccc1,,"inconclusive: 18.4 µM [cytotoxic, single point]"
CC(C)C[C@H]1CN([C@@H](Cc2ccccc2)CN2CCC[C@@H]2CN2C(=O)C(=O)NC[C@@H]2Cc2ccccc2)C(=O)C(=O)N1CC1CCCCC1,,"inconclusive: 29.1 µM [cytotoxic, single point]"
O=C(NCCO)C(=O)c1c(-c2ccc(Cl)cc2)cc2ccccn12,inactive: 1.58%,
COc1ccc(OC)c(NC(=O)c2nc(SCc3ccccc3F)ncc2Cl)c1,inactive: 7.11%,
COCCN1C(=O)/C(=C/c2ccc(Oc3ccc([N+](=O)[O-])cn3)c(OC)c2)SC1=Nc1ccccc1,,"inconclusive: 29.1 µM [cytotoxic, single point]"
CN(C)S(=O)(=O)c1cccc(NC(=O)CCSc2ccc(Cl)cc2)c1,,"inconclusive: 29.1 µM [cytotoxic, single point]"
